Experimental data: US7038022, “Multimeric forms of members of the steroid/thyroid superfamily of receptors” (The Salk Institute for Biological Studies)
Results are given in words; binding and its absence hold for the method and conditions named. For some assays here: In cells and extracts the contact can be indirect. Some results given as binding are weak or reduced against the parent protein; the word gives no strength.

Key:
[1] = target: T1, thyroid receptor-beta (TRβ), synthesized in vitro (UniProt P10828); assay: immunoprecipitation and gel mobility shift (figure legend)
T1 sequence (looked up): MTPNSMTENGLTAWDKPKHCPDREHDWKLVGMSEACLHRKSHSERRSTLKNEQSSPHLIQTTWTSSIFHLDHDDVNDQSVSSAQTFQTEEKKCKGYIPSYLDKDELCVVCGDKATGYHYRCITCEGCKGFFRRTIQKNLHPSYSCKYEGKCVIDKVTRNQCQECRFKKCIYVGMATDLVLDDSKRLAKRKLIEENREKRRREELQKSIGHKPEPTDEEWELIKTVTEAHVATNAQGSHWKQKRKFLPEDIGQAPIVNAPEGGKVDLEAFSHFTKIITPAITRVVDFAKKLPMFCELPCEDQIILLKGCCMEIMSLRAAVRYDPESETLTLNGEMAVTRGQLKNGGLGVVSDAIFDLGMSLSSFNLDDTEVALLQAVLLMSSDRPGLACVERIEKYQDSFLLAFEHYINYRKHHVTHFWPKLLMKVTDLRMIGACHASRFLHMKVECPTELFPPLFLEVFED

[2] = target: T2, vitamin D receptor (VDR), synthesized in vitro (UniProt P11473); assay: as above
T2 sequence (looked up): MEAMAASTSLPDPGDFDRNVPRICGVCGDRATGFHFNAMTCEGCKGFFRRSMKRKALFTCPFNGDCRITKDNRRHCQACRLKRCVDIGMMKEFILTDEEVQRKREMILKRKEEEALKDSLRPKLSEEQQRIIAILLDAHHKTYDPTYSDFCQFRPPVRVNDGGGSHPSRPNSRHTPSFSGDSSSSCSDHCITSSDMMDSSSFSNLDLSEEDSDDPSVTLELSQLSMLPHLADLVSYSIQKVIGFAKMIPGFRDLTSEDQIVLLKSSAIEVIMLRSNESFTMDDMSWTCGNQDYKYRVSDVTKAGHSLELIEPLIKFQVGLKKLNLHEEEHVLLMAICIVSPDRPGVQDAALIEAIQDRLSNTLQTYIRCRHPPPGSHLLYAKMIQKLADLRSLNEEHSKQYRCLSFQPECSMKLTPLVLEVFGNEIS

[3] = target: T1, thyroid receptor-beta (TRβ), synthesized in vitro; assay: co-immunoprecipitation with RXR antiserum
[4] = target: T2, vitamin D receptor (VDR), synthesized in vitro; assay: co-immunoprecipitation with RXR antiserum
[5] = target: T3, truncated RAR protein consisting of only the C-terminal region of RAR (UniProt P10276); assay: co-immunoprecipitation with RXR antiserum, 35S-labeled truncated RAR
T3 sequence (looked up): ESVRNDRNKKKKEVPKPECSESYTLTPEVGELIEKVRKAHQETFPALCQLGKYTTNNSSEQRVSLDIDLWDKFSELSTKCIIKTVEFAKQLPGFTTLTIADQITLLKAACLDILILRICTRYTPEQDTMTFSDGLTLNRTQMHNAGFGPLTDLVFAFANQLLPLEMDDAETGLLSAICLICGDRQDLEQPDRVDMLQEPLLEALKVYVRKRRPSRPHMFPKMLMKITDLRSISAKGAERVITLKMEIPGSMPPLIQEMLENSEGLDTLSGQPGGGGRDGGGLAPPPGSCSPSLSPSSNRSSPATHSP

Measured: binding

B1: RXR-glutathione-S-transferase fusion protein (hRXRα expressed in bacteria as a fusion with glutathione-S-transferase, pGEX-2T) (receptor, human, UniProt P19793 1-462, looked up)
chain: MDTKHFLPLDFSTQVNSSLTSPTGRGSMAAPSLHPSLGPGIGSPGQLHSPISTLSSPINGMGPPFSVISSPMGPHSMSVPTTPTLGFSTGSPQLSSPMNPVSSSEDIKPPLGLNGVLKVPAHPSGNMASFTKHICAICGDRSSGKHYGVYSCEGCKGFFKRTVRKDLTYTCRDNKDCLIDKRQRNRCQYCRYQKCLAMGMKREAVQEERQRGKDRNENEVESTSSANEDMPVERILEAELAVEPKTETYVEANMGLNPSSPNDPVTNICQAADKQLFTLVEWAKRIPHFSELPLDDQVILLRAGWNELLIASFSHRSIAVKDGILLATGLHVHRNSAHSAGVGAIFDRVLTELVSKMRDMQMDKTELGCLRAIVLFNPDSKGLSNPAEVEALREKVYASLEAYCKHKYPEQPGRFAKLLLRLPALRSIGLKCLEHLFFFKLIGDTPIDTFLMEMLEAPHQMT
notes: GST placed N-terminal as in pGEX-2T vectors; also called RXR-GST; GST-RXR; not shown: glutathione-S-transferase encoded by the pGEX-2T expression vector
binds: all assays above
